The assay has as its system BDF1 mice, B16 melanoma ip, median survival T/C. The experiment in a line: NCI In Vivo Anticancer Drug Screen. Data for tumor model B16 Melanoma (intraperitoneal) in B6D2F1 (BDF1) mice. Conditions: T/C endpoint: median survival time, higher T/C = longer survival. The procedure: The antitumor activity of compounds was measured in mice bearing transplantable tumors. Survival or tumor size were measured and the results are expressed as the measurement made in the treated group (T) divided by the measurement made in the vehicle treated control group (C). The tumor model used in this assay is B16 Melanoma (intraperitoneal) in B6D2F1 (BDF1) mice

[1] abbreviates: dose: 12.5 mg/kg/injection, schedule: Q01DX009 (ip), vehicle: Klucel (hydroxypropylcellulose) (HPC).
[2] abbreviates: dose: 100.0 mg/kg/injection, schedule: Q01DX009 (ip), vehicle: Klucel (hydroxypropylcellulose) (HPC).

Structures are written as SMILES. The list is a part of this screen's results and no random one: it covers a few groups of compounds. Other doses and runs of a compound may be missing. T/C gives the treated animals as a percentage of the vehicle group. Where survival is the endpoint, the PubChem record calls one and a half times the control and up active, and a quarter to a half above the control has no call in these data; cut-offs in other NCI protocols can differ. Schedule codes are those of the source, taken here to give the interval after Q, in days (D) or hours (H), and the number of doses after X. Some T/C values are marked as having no survivor count here; that says nothing about deaths at the dose. Some entries hold several experiments; the values are given in rising order.

As to `O=C(CCN(CCCl)CCCl)c1cccc([N+](=O)[O-])c1`, the T/C by setting is: (dose: 3.0 mg/kg/injection, schedule: Q01DX009 (ip), vehicle: Klucel (hydroxypropylcellulose) (HPC)) 144 % of control [survivor count not shown]; (dose: 6.0 mg/kg/injection, schedule: Q01DX009 (ip), vehicle: Klucel (hydroxypropylcellulose) (HPC)) 144 % of control [survivor count not shown].
For `N#Cc1ccc(N(CCCl)CCCl)cc1`, the T/C under setting [1] was 90 % of control [survivor count not shown]; the T/C (dose: 25.0 mg/kg/injection, schedule: Q01DX009 (ip), vehicle: Klucel (hydroxypropylcellulose) (HPC)) was 108 % of control [survivor count not shown]; the T/C (dose: 50.0 mg/kg/injection, schedule: Q01DX009 (ip), vehicle: Klucel (hydroxypropylcellulose) (HPC)) was 95 % of control [survivor count not shown]; the T/C under setting [2] is 86 % of control [survivor count not shown]; the T/C (dose: 200.0 mg/kg/injection, schedule: Q01DX009 (ip), vehicle: Klucel (hydroxypropylcellulose) (HPC)) is 93 % of control [survivor count not shown].
As to `NS(=O)(=O)c1ccc(N(CCCl)CCCl)cc1`, the T/C was 90 % of control [survivor count not shown] under setting [1]; 97 % of control (dose: 25.0 mg/kg/injection, schedule: Q01DX009 (ip), vehicle: Klucel (hydroxypropylcellulose) (HPC), evaluated on day 60); 93 % of control [survivor count not shown] (dose: 25.0 mg/kg/injection, schedule: Q01DX009 (ip), vehicle: Klucel (hydroxypropylcellulose) (HPC), evaluation day not shown); 98 % of control (dose: 50.0 mg/kg/injection, schedule: Q01DX009 (ip), vehicle: Klucel (hydroxypropylcellulose) (HPC), evaluated on day 60); 96 % of control [survivor count not shown] (dose: 50.0 mg/kg/injection, schedule: Q01DX009 (ip), vehicle: Klucel (hydroxypropylcellulose) (HPC), evaluation day not shown); 101 % of control under setting [2]. Further, the T/C runs as follows: (dose: 200.0 mg/kg/injection, schedule: Q01DX009 (ip), vehicle: Klucel (hydroxypropylcellulose) (HPC), evaluated on day 60) 92 % of control; (dose: 200.0 mg/kg/injection, schedule: Q01DX009 (ip), vehicle: Klucel (hydroxypropylcellulose) (HPC), evaluation day not shown) 92 % of control [survivor count not shown].
Take `CC(Cl)CNCC(C)Cl` (centres undefined): the T/C (dose: 25.0 mg/kg/injection, schedule: Q01DX009 (ip), vehicle: saline) is 106 % of control [survivor count not shown]; the T/C (dose: 25.0 mg/kg/injection, schedule: Q04DX003 (ip), vehicle: saline) was 94 % of control [survivor count not shown]; the T/C (dose: 50.0 mg/kg/injection, schedule: Q01DX009 (ip), vehicle: saline) was 120 % of control [survivor count not shown]; the T/C (dose: 50.0 mg/kg/injection, schedule: Q04DX003 (ip), vehicle: saline) is 115 % of control [survivor count not shown].
On to `CC1(C)NC(=O)N(CCN(CCCl)CCCl)C1=O`, for which the T/C is, setting by setting: (dose: 0.38 mg/kg/injection, schedule: Q01DX009 (ip), vehicle: saline with Tween-80) 115 % of control [survivor count not shown]; (dose: 0.68 mg/kg/injection, schedule: Q01DX009 (ip), vehicle: saline) 125 % of control [survivor count not shown]; (dose: 0.75 mg/kg/injection, schedule: Q01DX009 (ip), vehicle: saline with Tween-80) 112 % of control [survivor count not shown]; (dose: 0.78 mg/kg/injection, schedule: Q01DX009 (ip), vehicle: Klucel (hydroxypropylcellulose) (HPC)) 104 % of control [survivor count not shown]; (dose: 1.0 mg/kg/injection, schedule: Q01DX009 (ip), vehicle: saline) 112 % of control [survivor count not shown]; (dose: 1.5 mg/kg/injection, schedule: Q01DX009 (ip), vehicle: saline with Tween-80) 98 % of control [survivor count not shown]. Also, the T/C was 121 [survivor count not shown] and 145 % of control [survivor count not shown] (dose: 1.56 mg/kg/injection, schedule: Q01DX009 (ip), vehicle: Klucel (hydroxypropylcellulose) (HPC)); 106 % of control [survivor count not shown] (dose: 3.0 mg/kg/injection, schedule: Q01DX009 (ip), vehicle: saline with Tween-80); 127 % of control [survivor count not shown] (dose: 3.12 mg/kg/injection, schedule: Q01DX009 (ip), vehicle: Klucel (hydroxypropylcellulose) (HPC)); 143 % of control [survivor count not shown] (dose: 6.0 mg/kg/injection, schedule: Q01DX009 (ip), vehicle: saline with Tween-80); 105 % of control [survivor count not shown] (dose: 6.0 micrograms/kg/injection, schedule: Q01DX009 (ip), vehicle: Klucel (hydroxypropylcellulose) (HPC)); 110 % of control [survivor count not shown] (dose: 12.0 micrograms/kg/injection, schedule: Q01DX009 (ip), vehicle: Klucel (hydroxypropylcellulose) (HPC)). Besides, the T/C was 104 % of control [survivor count not shown] (dose: 25.0 micrograms/kg/injection, schedule: Q01DX009 (ip), vehicle: Klucel (hydroxypropylcellulose) (HPC)); 100 % of control [survivor count not shown] (dose: 50.0 micrograms/kg/injection, schedule: Q01DX009 (ip), vehicle: Klucel (hydroxypropylcellulose) (HPC)); 101 % of control [survivor count not shown] (dose: 100.0 micrograms/kg/injection, schedule: Q01DX009 (ip), vehicle: Klucel (hydroxypropylcellulose) (HPC)).

These data come from PubChem BioAssay AID192 (DTP/NCI, 2004).
